{"source": "PubChem BioAssay AID258", "about": "(DTP/NCI, 2004)", "system": "CD2F1 mice, L1210 leukemia sc, survival T/C", "experiment": "NCI In Vivo Anticancer Drug Screen. Data for tumor model L1210 Leukemia (subcutaneous) in CD2F1 (CDF1) mice", "conditions": "T/C endpoint: median survival time, higher T/C = longer survival", "summary_of_the_method": "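Compound given to mice bearing transplantable tumor. Survival or tumor size then recorded. Result expressed relative to vehicle-dosed control group as T/C.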", "key": {"[1]": {"conditions": "dose: 200.0 mg/kg/injection, schedule: Q01DX009 (ip), vehicle: other"}, "[2]": {"conditions": "dose: 267.0 mg/kg/injection, schedule: Q01DX005 (ip), vehicle: other"}}, "note": "The list shows only some results of the screen, not a fair sample: it is rich in T/C values a quarter to a half above the control, in often repeated tests (any T/C) and in doses without a T/C. Further doses and runs are listed elsewhere. T/C gives the treated animals as a percentage of the vehicle group. Some doses have a count of surviving animals in place of a T/C: the source holds a T/C of zero for them, seemingly a mark for toxic or unscored doses. Some survivor counts are full or nearly so, which does not show that the dose was tolerated: survival well below the control is almost never listed, so the zero probably covers shortened survival too. Counts of survivors are from the toxicity check (mostly the fifth day) where no day follows; animals may have died later. Schedules are NCI's codes, taken here to give the interval after Q, in days (D) or hours (H), and the number of doses after X. Some schedules carry Z or #; the key to these is not given. Some doses were run more than once; the values are given in rising order. Where survival is the endpoint, this PubChem deposit counts one and a half times the control or more as active, and values a quarter to a half above the control carry no call in these data; other NCI protocols may use other cut-offs. Signs of the kind (2×) say how often a value occurs here. Some T/C values carry the count of animals alive at the toxicity check (mostly the fifth day); without a count, all were alive then."}
{"molecule": "CS(=O)(=O)CS(=O)(=O)OCCCl", "values": [{"measurement": "T/C", "setting": "dose: 12.5 mg/kg/injection, schedule: Q01DX005 (ip), vehicle: other", "value": "127 % of control"}, {"measurement": "T/C", "setting": "dose: 16.8 mg/kg/injection, schedule: Q01DX009 (ip), vehicle: dextrose", "value": "127 % of control"}, {"measurement": "T/C", "setting": "dose: 24.0 mg/kg/injection, schedule: Q01DX005 (ip), vehicle: dextrose", "value": "148 % of control"}, {"measurement": "T/C", "setting": "dose: 25.0 mg/kg/injection, schedule: Q01DX005 (ip), vehicle: other", "value": "137 % of control"}, {"measurement": "T/C", "setting": "dose: 25.0 mg/kg/injection, schedule: Q01DX005 (iv), vehicle: other", "value": "148 % of control"}, {"measurement": "T/C", "setting": "dose: 34.3 mg/kg/injection, schedule: Q01DX001 (ip), vehicle: dextrose", "value": "133 % of control"}, {"measurement": "T/C", "setting": "dose: 34.3 mg/kg/injection, schedule: Q01DX002 (ip), vehicle: dextrose", "value": "144 % of control"}, {"measurement": "T/C", "setting": "dose: 50.0 mg/kg/injection, schedule: Q01DX001 (ip), vehicle: other", "value": "138 % of control"}, {"measurement": "T/C", "setting": "dose: 50.0 mg/kg/injection, schedule: Q01DX001 (iv), vehicle: other", "value": "145 % of control"}, {"measurement": "T/C", "setting": "dose: 100.0 mg/kg/injection, schedule: Q01DX001 (oral), vehicle: other", "value": "138 % of control"}, {"measurement": "survivor count", "setting": "dose: 100.0 mg/kg/injection, schedule: Q01DX009 (ip), vehicle: saline with Tween-80", "value": "3 of 6"}, {"measurement": "survivor count", "setting": "dose: 200.0 mg/kg/injection, schedule: Q01DX001 (ip), vehicle: other", "value": "0 of 10 on day 7"}, {"measurement": "survivor count", "setting": "dose: 200.0 mg/kg/injection, schedule: Q01DX005 (ip), vehicle: other", "value": "0 of 10 on day 7"}, {"measurement": "survivor count", "setting": "[1]", "value": "2 of 10 on day 7"}, {"measurement": "survivor count", "setting": "dose: 200.0 mg/kg/injection, schedule: Q04DX003 (ip), vehicle: other", "value": "0 of 10 on day 7"}, {"measurement": "survivor count", "setting": "dose: 400.0 mg/kg/injection, schedule: Q01DX001 (ip), vehicle: other", "value": "0 of 10 on day 7"}, {"measurement": "survivor count", "setting": "dose: 400.0 mg/kg/injection, schedule: Q01DX001 (oral), vehicle: other", "value": "0 of 10 on day 7"}, {"measurement": "survivor count", "setting": "dose: 400.0 mg/kg/injection, schedule: Q01DX009 (oral), vehicle: other", "value": "0 of 10 on day 7"}, {"measurement": "survivor count", "setting": "dose: 800.0 mg/kg/injection, schedule: Q01DX001 (oral), vehicle: other", "value": "0 of 10 on day 7"}, {"measurement": "survivor count", "setting": "dose: 800.0 mg/kg/injection, schedule: Q01DX009 (oral), vehicle: other", "value": "0 of 10 on day 7"}]}
{"molecule": "CCn1cnc2c(=S)nc[nH]c21", "values": [{"measurement": "survivor count", "setting": "dose: 23.0 mg/kg/injection, schedule: Q01DX Z (sc), vehicle: methylcellulose (MC)", "value": "3 of 10"}, {"measurement": "survivor count", "setting": "dose: 39.0 mg/kg/injection, schedule: Q01DX Z (sc), vehicle: methylcellulose (MC)", "value": "3 of 10"}, {"measurement": "survivor count", "setting": "dose: 65.0 mg/kg/injection, schedule: Q01DX Z (sc), vehicle: methylcellulose (MC)", "value": "6 of 10"}, {"measurement": "survivor count", "setting": "dose: 108.0 mg/kg/injection, schedule: Q01DX Z (sc), vehicle: methylcellulose (MC)", "value": "3 of 10 and 5 of 10"}, {"measurement": "survivor count", "setting": "dose: 180.0 mg/kg/injection, schedule: Q01DX Z (sc), vehicle: methylcellulose (MC)", "value": "4 of 10 and 5 of 10"}, {"measurement": "survivor count", "setting": "dose: 300.0 mg/kg/injection, schedule: Q01DX Z (sc), vehicle: methylcellulose (MC)", "value": "5 of 10 and 6 of 10"}, {"measurement": "T/C", "setting": "dose: 500.0 mg/kg/injection, schedule: Q01DX Z (sc), vehicle: methylcellulose (MC)", "value": "130 [8 of 10 alive] and 130 % of control [9 of 10 alive]"}]}
{"molecule": "CC[C@@]1(O)C(=O)OCc2c1cc1n(c2=O)Cc2cc3ccccc3nc2-1", "values": [{"measurement": "survivor count", "setting": "dose: 0.05 mg/kg/injection, schedule: Q01DX Z (sc), vehicle: carboxymethylcellulose (CMC)", "value": "6 of 10"}, {"measurement": "survivor count", "setting": "dose: 0.08 mg/kg/injection, schedule: Q01DX Z (sc), vehicle: carboxymethylcellulose (CMC)", "value": "1 of 10"}, {"measurement": "survivor count", "setting": "dose: 0.36 mg/kg/injection, schedule: Q01DX Z (sc), vehicle: carboxymethylcellulose (CMC)", "value": "4 of 10"}]}
{"molecule": "CCOC(=O)c1c[nH]c2oc(/C=N/N3CC(CN4CCOCC4)OC3=O)cc2c1=O", "note": "(stereo not drawn)", "values": [{"measurement": "T/C", "setting": "dose: 100.0 mg/kg/injection, schedule: Q01DX009 (ip), vehicle: other", "value": "136 % of control"}, {"measurement": "T/C", "setting": "dose: 178.0 mg/kg/injection, schedule: Q01DX005 (ip), vehicle: other", "value": "133 % of control [9 of 10 alive]"}, {"measurement": "T/C", "setting": "[1]", "value": "148 % of control"}, {"measurement": "T/C", "setting": "[2]", "value": "138 % of control"}, {"measurement": "survivor count", "setting": "[2]", "value": "2 of 10"}, {"measurement": "survivor count", "setting": "dose: 400.0 mg/kg/injection, schedule: Q01DX005 (ip), vehicle: other", "value": "7 of 10"}, {"measurement": "T/C", "setting": "dose: 400.0 mg/kg/injection, schedule: Q01DX009 (ip), vehicle: other", "value": "136 % of control [5 of 6 alive]"}, {"measurement": "survivor count", "setting": "dose: 600.0 mg/kg/injection, schedule: Q01DX005 (ip), vehicle: other", "value": "0 of 10"}, {"measurement": "survivor count", "setting": "dose: 800.0 mg/kg/injection, schedule: Q01DX009 (ip), vehicle: other", "value": "5 of 6"}]}
{"molecule": "CO[C@@]12[C@H](COC(N)=O)C3=C(C(=O)C(C)=C(N)C3=O)N1C[C@@H]1N[C@@H]12", "values": [{"measurement": "T/C", "setting": "dose: 5.42 mg/kg/injection, schedule: Q01DX Z (sc), vehicle: saline", "value": "129 % of control"}]}
{"molecule": "CCOC(=O)NP(=O)(N1CC1)N1CC1", "values": [{"measurement": "survivor count", "setting": "dose: 3.0 mg/kg/injection, schedule: Q01DX Z (sc), vehicle: water", "value": "6 of 10"}, {"measurement": "survivor count", "setting": "dose: 5.0 mg/kg/injection, schedule: Q01DX Z (sc), vehicle: water", "value": "5 of 10"}, {"measurement": "T/C", "setting": "dose: 8.4 mg/kg/injection, schedule: Q01DX Z (sc), vehicle: water", "value": "144 % of control [8 of 10 alive]"}, {"measurement": "T/C", "setting": "dose: 39.0 mg/kg/injection, schedule: Q01DX Z (sc), vehicle: water", "value": "133 % of control"}]}
{"molecule": "CN(C)c1nc(N(C)C)nc(N(C)C)n1", "values": [{"measurement": "survivor count", "setting": "dose: 300.0 mg/kg/injection, schedule: Q01DX009 (ip), vehicle: saline with Tween-80", "value": "10 of 10"}, {"measurement": "survivor count", "setting": "dose: 360.0 mg/kg/injection, schedule: Q01DX009 (ip), vehicle: saline with Tween-80", "value": "6 of 10"}]}
{"molecule": "Nc1nc(=S)c2ncn(C3OC(CO)C(O)C3O)c2[nH]1", "note": "(stereo not drawn)", "values": [{"measurement": "T/C", "setting": "dose: 14.0 mg/kg/injection, schedule: Q01DX Z (sc), vehicle: other", "value": "138 % of control"}, {"measurement": "T/C", "setting": "dose: 23.0 mg/kg/injection, schedule: Q01DX Z (sc), vehicle: other", "value": "138 % of control"}, {"measurement": "T/C", "setting": "dose: 39.0 mg/kg/injection, schedule: Q01DX Z (sc), vehicle: other", "value": "128 % of control"}]}
{"molecule": "ONc1nc(NO)c2[nH]cnc2n1", "values": [{"measurement": "T/C", "setting": "dose: 16.0 mg/kg/injection, schedule: Q01DX Z (sc), vehicle: steroid suspending solution", "value": "125 % of control"}]}
{"molecule": "C[C@@](O)(/C=C/[C@H]1CC=CC(=O)O1)[C@@H](C[C@@H](O)\\C=C/C=C\\C=C\\CO)OP(=O)(O)O", "values": [{"measurement": "T/C", "setting": "dose: 12.5 mg/kg/injection, schedule: Q01DX009 (ip), vehicle: other", "value": "130 % of control"}, {"measurement": "survivor count", "setting": "dose: 25.0 mg/kg/injection, schedule: Q01DX009 (ip), vehicle: other", "value": "0 of 10"}, {"measurement": "survivor count", "setting": "dose: 50.0 mg/kg/injection, schedule: Q01DX009 (ip), vehicle: other", "value": "0 of 10"}]}
{"molecule": "Nc1nncs1", "values": [{"measurement": "T/C", "setting": "dose: 180.0 mg/kg/injection, schedule: Q02DX005 (sc), vehicle: water", "value": "131 % of control"}, {"measurement": "T/C", "setting": "dose: 1388.0 mg/kg/injection, schedule: Q04DX003 (sc), vehicle: saline", "value": "144 % of control"}]}
{"molecule": "NC(=S)N/N=C/c1ccc(O)cn1", "values": [{"measurement": "T/C", "setting": "dose: 14.0 mg/kg/injection, schedule: Q03HX032 (sc), vehicle: other, evaluated on day 7", "value": "107 and 109 % of control"}, {"measurement": "T/C", "setting": "dose: 14.0 mg/kg/injection, schedule: Q03HX032 (sc), vehicle: other, evaluated on day 38", "value": "105 and 111 % of control"}, {"measurement": "T/C", "setting": "dose: 23.0 mg/kg/injection, schedule: Q03HX032 (sc), vehicle: other, evaluated on day 7", "value": "124 and 153 % of control"}, {"measurement": "T/C", "setting": "dose: 23.0 mg/kg/injection, schedule: Q03HX032 (sc), vehicle: other, evaluated on day 38", "value": "122 and 155 % of control"}, {"measurement": "T/C", "setting": "dose: 39.0 mg/kg/injection, schedule: Q03HX032 (sc), vehicle: other, evaluated on day 7", "value": "187 and 195 % of control"}, {"measurement": "T/C", "setting": "dose: 39.0 mg/kg/injection, schedule: Q03HX032 (sc), vehicle: other, evaluated on day 38", "value": "188 and 200 % of control"}, {"measurement": "T/C", "setting": "dose: 65.0 mg/kg/injection, schedule: Q03HX032 (sc), vehicle: other, evaluated on day 7", "value": "168 and 169 % of control"}, {"measurement": "T/C", "setting": "dose: 65.0 mg/kg/injection, schedule: Q03HX032 (sc), vehicle: other, evaluated on day 38", "value": "166 % of control (2×)"}]}
